# In all, about 330,000 compounds went through this assay and about 7,700 (2.3%) were called active. Inconclusive means that the source gave no clear call. Such entries were picked first, then a sample of the others. Calls follow the shape of the dose curve; as a rule, active = well fitted inhibition curve with a large enough effect; inconclusive = small, poorly fitted or top-dose-only effect, or effect the other way; inactive = flat fitted curve, though single readings scatter. Potencies beside an inconclusive call are fits to weak or partial responses and may not hold up.
# Assay: qHTS screen for small molecules that inhibit ELG1-dependent DNA repair in human embryonic kidney (HEK293T) cells expressing luciferase-tagged ELG1; also: nearly all actives have a fitted effect of over 55% in size
# Settings: HEK293T ELG1-luciferase reporter, luminescence, 16 h, DNA damage induced by 5-fluorouridine; activity change, negative = inhibition: at 46.1 µM (top of the series)
# How it was run: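 In this reporter screen, reduction of luminescence relative to DMSO vehicle indicated activity. Compounds and 5-fluorouridine were added together to 2,000 cells per well, incubated for 16 hr at 37 °C, then developed with ONE-Glo.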
# % is scaled to controls: 0 for no effect and ±100 for the full control effect; potency is read from the fitted curve at half-maximal effect.
SMILES,"activity change, negative = inhibition",Potency
Cc1ccc(OCc2n[nH]c(=S)n2N)cc1C,inactive: 29.2%,
N#CC1=C(N)Oc2cc3ccccc3cc2C1c1cccnc1 (configuration not stated),inactive: 14.6%,
O=c1/c(=C/c2ccc(O)cc2)sc2n1CCCN=2,,"inconclusive: 9.2 µM [activator, partial curve]"
O=C(c1ccc(S(=O)(=O)c2cccc(Cl)c2)c([N+](=O)[O-])c1)N1CCN(c2ccccn2)CC1,,active: 18.3 µM
C(=N\N=C\c1ccncc1)/c1ccncc1,inactive: 6.13%,
O=C(CSc1nnc(NC(=O)c2ccccc2Cl)s1)Nc1ccc2c(c1)oc1ccccc12,,"inconclusive: 9.2 µM [activator, partial curve]"
Cc1ccc(CCNC(=O)C2CC(c3cccc(F)c3)=NO2)cc1 (configuration not stated),,"inconclusive: 29.1 µM [activator, single point]"
CCOC(=O)C1=C(C)N(C)C(=O)NC1c1c(C)nn(-c2ccc(C)cc2)c1Cl (configuration not stated),,"inconclusive: 29.1 µM [inhibitor, single point]"
C[C@H](CO)N1C[C@H](C)[C@@H](CN(C)S(=O)(=O)c2ccccc2)Oc2ccc(NC(=O)Nc3ccccc3)cc2C1=O,,active: 20.6 µM
COc1ccc2c(c1)c1nc3n(c(=O)c1n2CC(=O)Nc1ccccc1)CCS3,,"inconclusive: 29.1 µM [activator, single point]"
CN(CC(=O)Nc1cc(S(=O)(=O)N2CCCCCC2)ccc1Cl)Cc1ccc2c(c1)OCO2,,"inconclusive: 29.1 µM [inhibitor, single point]"
CC1CC(C)CN(S(=O)(=O)c2ccc3c(c2)CC(C)N3C(=O)C2CC2)C1 (configuration not stated),inactive: -20.8%,
CCCn1c(CC)nc([N+](=O)[O-])c1S(=O)(=O)c1ccccc1,,"inconclusive: 18.4 µM [activator, single point]"
CCC(=O)c1ccc(OCC(=O)N2CCN(c3ncccn3)CC2)cc1,inactive: 10.3%,
NNC(=O)c1ccc(-c2ccccc2F)cc1,,"inconclusive: 29.1 µM [inhibitor, single point]"
N#C/C(=C\c1ccco1)c1nc2ccccc2s1,,"inconclusive: 3.66 µM [activator, full curve]"
CCCCSc1cnn(-c2ccccc2)c(=O)c1SCCCC,,"inconclusive: 9.2 µM [inhibitor, partial curve, poor fit]"
O=C(NC(=S)Nc1cccnc1)c1cccs1,,"inconclusive: 20.6 µM [activator, single point]"
CN1CCN(NC(=O)c2cc(-c3ccccn3)nc3ccccc23)CC1,,"inconclusive: 32.6 µM [activator, single point]"
CCN1C(=O)CCCc2ccccc21,,"inconclusive: 25.9 µM [activator, single point]"
O=C(c1ccccc1Cl)N1CCN(Cc2ccc3c(c2)OCO3)CC1,,"inconclusive: 16.4 µM [inhibitor, single point]"
CC(=O)Oc1ccc(C(=O)[C@H]2[C@H]3C(=O)N(c4ccc(C)cc4)C(=O)[C@H]3[C@@H]3C=CC=NN32)cc1,,"inconclusive: 20.6 µM [activator, single point]"
COc1cccc(CNC(=O)[C@H](C)NC(=O)C2CCN(S(=O)(=O)c3ccccc3)CC2)c1,inactive: 0.767%,
C/C(=N\Nc1ccc([N+](=O)[O-])cc1[N+](=O)[O-])c1ccc(-n2nncc2C(C)(C)C)cc1,,active: 10.3 µM

# 3 of the compounds above, with bars between the fields:
SMILES | activity change, negative = inhibition | Potency
O=C(c1ccc(S(=O)(=O)c2cccc(Cl)c2)c([N+](=O)[O-])c1)N1CCN(c2ccccn2)CC1 |  | active: 18.3 µM
C(=N\N=C\c1ccncc1)/c1ccncc1 | inactive: 6.13% | 
O=C(CSc1nnc(NC(=O)c2ccccc2Cl)s1)Nc1ccc2c(c1)oc1ccccc12 |  | inconclusive: 9.2 µM [activator, partial curve]

# Next part.

SMILES,"activity change, negative = inhibition",Potency
O=C(c1cccc(S(=O)(=O)N2CCc3ccccc32)c1)N1CCN(c2ccccc2)CC1,inactive: -0.528%,
O=C(NOCc1ccccc1)c1ccc([N+](=O)[O-])cc1,,"inconclusive: 9.2 µM [activator, partial curve]"
O=C(N/N=C/c1ccccn1)c1ccc(N/N=C/c2ccccn2)cc1,,"inconclusive: 5.8 µM [activator, single point]"
CCOCCCNC(=O)N1CCOCC1,inactive: 15.6%,
O=C(c1cc(-c2ccccc2)nn1-c1ccccc1)N1CCN(S(=O)(=O)c2c(F)cccc2F)CC1,,"inconclusive: 18.3 µM [inhibitor, partial curve]"
CCCc1ccc(S(=O)(=O)N/N=C(/C)c2ccc3c(c2)OCO3)cc1,inactive: -4.6%,
Cc1cc(Nc2ccccc2)nc(NCc2ccccc2)n1,,active: 4.61 µM
CC(NC(=O)CCl)c1ccc(Cl)c(Cl)c1 (configuration not stated),,"inconclusive: 23.1 µM [inhibitor, partial curve, poor fit]"
COCCCNC(=O)/C(C#N)=C/c1c(N2CCN(c3ccccc3)CC2)nc2ccccn2c1=O,,"inconclusive: 23.1 µM [inhibitor, partial curve, poor fit]"
Oc1ccc(-c2onc3ccc(Cl)cc23)cc1,,"inconclusive: 20.6 µM [inhibitor, partial curve, poor fit]"
COc1ccc(N=Cc2cccc(C)c2O)cc1Cl,inactive: 9.28%,
Cc1ccc(-c2cc(-c3ccc(F)cc3)nc(N)c2C#N)o1,,"inconclusive: 29.1 µM [inhibitor, single point]"
Cc1ccc(S(=O)(=O)N2CCN(C(=O)COC(=O)CCOc3ccc(C(C)(C)C)cc3)CC2)cc1,inactive: 4.41%,
Cc1ccc(C2C(=O)N(C3CCCC3)CC(=O)N2C2CCCCC2)cc1 (configuration not stated),inactive: 4.8%,
COc1ccccc1CNC(=O)CN1C(=O)NC2(CCCC2)C1=O,inactive: 2.05%,
COc1ccccc1NC(=O)CN1CCN(C2c3ccccc3-c3ccccc32)CC1,,active: 3.66 µM
CCNc1nc(NCC)nc(OCCOC(C)=O)n1,,"inconclusive: 2.31 µM [inhibitor, partial curve, poor fit]"
O=C(N[C@@H](Cc1ccccc1)C(=O)CCl)OCc1ccccc1,,"inconclusive: 35.5 µM [inhibitor, single point]"
CCOC(CNC(=O)c1cccn2c(=O)c3c(C)c(C)sc3nc12)OCC,,"inconclusive: 29.1 µM [inhibitor, single point]"
O=C(Nc1cc(C(=O)N2CCN(c3ccccc3O)CC2)ccc1Cl)c1cccs1,,"inconclusive: 13 µM [inhibitor, partial curve]"
Cc1cccc(N2CCN(C(=O)c3ccc4ccccc4c3)CC2C)c1 (configuration not stated),,"inconclusive: 25.9 µM [inhibitor, partial curve, poor fit]"
Cc1cc(Cl)nc(-n2nc(C)cc2C)n1,,"inconclusive: 20.6 µM [activator, single point]"
O=S(=O)(Nc1cccc(CO)c1)c1cccs1,inactive: 1.55%,
O=C(O)Cn1cc(/C=N/Nc2ccc([N+](=O)[O-])cn2)c2ccccc21,inactive: 0%,

SMILES,"activity change, negative = inhibition",Potency
O=C(NNC(=O)C1COc2ccccc2O1)c1cccc([N+](=O)[O-])c1 (configuration not stated),inactive: 3.66%,
O=S(=O)(c1ccc(Cl)cc1)N1CCN(Cc2ccc(O)c3ncccc23)CC1,,"inconclusive: 3.26 µM [inhibitor, partial curve, poor fit]"
CCN(CC)CCCNC(=O)CSc1nc(-c2ccc(F)cc2)cc(C(F)(F)F)n1,,"inconclusive: 23.1 µM [inhibitor, single point]"
Cc1onc(-c2ccccc2Cl)c1C(=O)Nc1ccc(-n2nncc2-c2ccco2)cc1,,"inconclusive: 10.3 µM [inhibitor, single point]"
N/C(=N\OC(=O)COc1ccc(Br)cc1Cl)c1ccccn1,,"inconclusive: 2.91 µM [activator, full curve]"
Cc1ccccc1NS(=O)(=O)c1ccc(C(=O)N2CCN(S(=O)(=O)c3ccccc3)CC2)cc1,,"inconclusive: 13 µM [inhibitor, partial curve, poor fit]"
Cc1noc(C)c1C(=O)OCC(=O)Nc1ccccc1C(=O)NC(C)c1ccccc1 (configuration not stated),,"inconclusive: 16.4 µM [inhibitor, single point]"
CCOC(=O)Cc1csc(NC(=O)C(NC(=O)C2CCCCC2)C(C)C)n1 (configuration not stated),,"inconclusive: 10.3 µM [inhibitor, partial curve]"
COCc1cc(CN2CCCC(C(=O)Nc3ccc(-c4ccco4)cc3)C2)ccc1OC (configuration not stated),inactive: -15.5%,
CC(C)c1ccc(/C=C/C(=O)Nc2ccc(CN3CCOCC3)cc2)cc1,,active: 9.2 µM
CC1CCCC(C)N1C(=O)/C=C/c1ccc(S(=O)(=O)N2CCOCC2)cc1 (configuration not stated),,active: 13 µM
Cc1nnc(NC(=O)CSc2nnc(-c3ccco3)n2C(C)C)s1,,"inconclusive: 16.4 µM [activator, partial curve, poor fit]"
COc1ccc(OC)c(-c2csc(N(C)C(=O)c3ccco3)n2)c1,inactive: -11.5%,
CC(=O)NC(=S)NNC(=O)COc1ccc(Br)cc1,,"inconclusive: 7.3 µM [activator, partial curve, poor fit]"
COc1ccc2nc(SCC(=O)NC3CCCC3)c(C)cc2c1,inactive: -20%,
CCNC(=S)N/N=C/c1cccc(/C=N/NC(=S)NCC)c1,inactive: -7.22%,
O=C(/C=C/c1ccccc1)N1CCN(CCN2C(=O)c3cccc4cccc(c34)C2=O)CC1,,active: 10.3 µM
CCCCc1ccc(NC(=S)NCCc2ccc(F)cc2)cc1,inactive: -3.64%,
O=C(c1cc2nc(-c3ccccc3)cc(-c3ccccc3)n2n1)N1CCCC1,,"inconclusive: 18.3 µM [inhibitor, single point]"
CCCCOC(=O)c1sc2nc(N3CCOCC3)c3c(c2c1N)CC(C)(C)OC3,,"inconclusive: 0.103 µM [inhibitor, full curve, poor fit]"
Cc1cc(=O)oc(C)c1C(=O)OC(C(=O)c1ccccc1)c1ccccc1 (configuration not stated),inactive: 24.8%,
O=C(CNCc1ccccn1)N1CCc2ccccc2C1,inactive: 0%,
O=C(Nc1cccc(-c2nnn(CC(=O)N3CCc4ccccc4C3)n2)c1)C1CCC1,,"inconclusive: 20.6 µM [inhibitor, single point]"
Cc1cccnc1NC(=O)c1ccc(C(=O)c2ccccc2)cc1,,"inconclusive: 8.91 µM [activator, partial curve, poor fit]"

# Given bar-delimited: entries from further up.
SMILES | activity change, negative = inhibition | Potency
Cc1ccc(CCNC(=O)C2CC(c3cccc(F)c3)=NO2)cc1 (configuration not stated) |  | inconclusive: 29.1 µM [activator, single point]
CCOC(=O)C1=C(C)N(C)C(=O)NC1c1c(C)nn(-c2ccc(C)cc2)c1Cl (configuration not stated) |  | inconclusive: 29.1 µM [inhibitor, single point]
